Laboratory results from publication PMC4117610.
No constants are given. Whether binding was seen depends on the method and setting. In cells and extracts the contact can be indirect.

Sequences of proteins named here, by UniProt entry; tags and fusion partners are left off. A change or cut given only in a name is not applied to a line headed by its entry.
UniProt Q8BNI4: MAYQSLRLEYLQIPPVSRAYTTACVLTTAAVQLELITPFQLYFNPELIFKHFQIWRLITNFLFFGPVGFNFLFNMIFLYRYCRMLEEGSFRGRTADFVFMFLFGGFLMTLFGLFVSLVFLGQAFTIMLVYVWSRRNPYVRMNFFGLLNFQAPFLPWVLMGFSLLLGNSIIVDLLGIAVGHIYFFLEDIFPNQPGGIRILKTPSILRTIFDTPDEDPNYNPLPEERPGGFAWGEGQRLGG

Target: Derl2 with a C-terminal GFP tag (Derl2-GFP), S-tagged (mouse) (UniProt Q8BNI4)
Test: pull-down; 293 cells transfected with S-tagged forms of Derl2, lysed after 72 h in 1% digitonin buffer; S-protein agarose precipitates, washed with 0.1% digitonin, 25 mM Tris-HCl, 150 mM NaCl, 5 mM EDTA, pH 7.0; western blot with anti-p97 and anti-S-tag

binding: no binding
Sequence: AAA ATPase p97 (from UniProt P55072 1-806)
